{"source": "PubChem BioAssay AID1259425 | University of Nebraska Medical Center, 2018", "assay": "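Seek colon cancer weak points whose silencing resembles KSR1 loss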 (primary screen)", "cell system": "HCT116 human colon cancer cells", "knock-down reagent": "siRNA pool against human genes, 50 nM siRNA", "read-out": "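mRNA of six signature genes measured together by branched-DNA assay after 50 nM siRNA pool, blank removed, divided by geometric mean of two housekeeping genes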", "direction": "BNIP3L mRNA: higher = more BNIP3L transcript after knockdown; NDRG1 mRNA: higher = more NDRG1 transcript after knockdown", "note": "The deposit covers about 14,000 reagents; this is a random part of them. Further read-outs or replicates are left out here. Not stated in the record: the time to read-out."}
{"target gene": "STK11", "PubChem SID": "SID363991786", "BNIP3L mRNA, set 1": 0.0953, "NDRG1 mRNA, set 1": 0.183}
{"target gene": "PCSK7", "PubChem SID": "SID363995675", "BNIP3L mRNA, set 1": 0.109, "NDRG1 mRNA, set 1": 0.272}
{"target gene": "ZBTB32", "PubChem SID": "SID363998805", "BNIP3L mRNA, set 1": 0.0971, "NDRG1 mRNA, set 1": 0.109}
{"target gene": "BTG1", "PubChem SID": "SID363992952", "BNIP3L mRNA, set 1": 0.0852, "NDRG1 mRNA, set 1": 0.145}
{"target gene": "ZC3HC1", "PubChem SID": "SID364000132", "BNIP3L mRNA, set 1": 0.134, "NDRG1 mRNA, set 1": 0.0889}
{"target gene": "ZFAND6", "PubChem SID": "SID364001324", "BNIP3L mRNA, set 1": 0.0946, "NDRG1 mRNA, set 1": 0.0937}

A portion of the results above, for reference:
{"target gene": "STK11", "PubChem SID": "SID363991786", "BNIP3L mRNA, set 1": 0.0953, "NDRG1 mRNA, set 1": 0.183}
{"target gene": "PCSK7", "PubChem SID": "SID363995675", "BNIP3L mRNA, set 1": 0.109, "NDRG1 mRNA, set 1": 0.272}
{"target gene": "ZBTB32", "PubChem SID": "SID363998805", "BNIP3L mRNA, set 1": 0.0971, "NDRG1 mRNA, set 1": 0.109}

The results go on.
{"target gene": "HOXD1", "PubChem SID": "SID364002826", "BNIP3L mRNA, set 1": 0.137, "NDRG1 mRNA, set 1": 0.079}
{"target gene": "GOLGA1", "PubChem SID": "SID363993284", "BNIP3L mRNA, set 1": 0.1, "NDRG1 mRNA, set 1": 0.137}
{"target gene": "ZBTB1", "PubChem SID": "SID363999219", "BNIP3L mRNA, set 1": 0.0973, "NDRG1 mRNA, set 1": 0.388}
{"target gene": "CRTAM", "PubChem SID": "SID364001433", "BNIP3L mRNA, set 1": 0.134, "NDRG1 mRNA, set 1": 0.182}
{"target gene": "DAP3", "PubChem SID": "SID363995600", "BNIP3L mRNA, set 1": 0.0791, "NDRG1 mRNA, set 1": 0.117}
{"target gene": "SLC39A3", "PubChem SID": "SID364004614", "BNIP3L mRNA, set 1": 0.198, "NDRG1 mRNA, set 1": 0.997}
{"target gene": "ASNS", "PubChem SID": "SID363992896", "BNIP3L mRNA, set 1": 0.071, "NDRG1 mRNA, set 1": 0.0748}
{"target gene": "NAPB", "PubChem SID": "SID364002312", "BNIP3L mRNA, set 1": 0.185, "NDRG1 mRNA, set 1": 0.338}
{"target gene": "GRM3", "PubChem SID": "SID363992127", "BNIP3L mRNA, set 1": 0.22, "NDRG1 mRNA, set 1": 0.246}
{"target gene": "FXYD2", "PubChem SID": "SID363992903", "BNIP3L mRNA, set 1": 0.277, "NDRG1 mRNA, set 1": 0.166}
{"target gene": "TAF4", "PubChem SID": "SID363994321", "BNIP3L mRNA, set 1": 0.0796, "NDRG1 mRNA, set 1": 0.0656}
{"target gene": "ZNF106", "PubChem SID": "SID364002458", "BNIP3L mRNA, set 1": 0.0516, "NDRG1 mRNA, set 1": 0.134}
{"target gene": "ACTN4", "PubChem SID": "SID363995868", "BNIP3L mRNA, set 1": 0.167, "NDRG1 mRNA, set 1": 0.202}
